Assay results reported in paper PMC5097169.
No constants are given. Whether binding was seen depends on the method and setting. For part of these data: Binding seen in cells or lysates may run through a third protein. Some binding calls cover weakened binding; strength is not graded here.

Sequences of proteins named here, by UniProt entry; tags and fusion partners are left off. A change or cut given only in a name is not applied to a line headed by its entry. Residues count along the entry.
UniProt Q9W7I5: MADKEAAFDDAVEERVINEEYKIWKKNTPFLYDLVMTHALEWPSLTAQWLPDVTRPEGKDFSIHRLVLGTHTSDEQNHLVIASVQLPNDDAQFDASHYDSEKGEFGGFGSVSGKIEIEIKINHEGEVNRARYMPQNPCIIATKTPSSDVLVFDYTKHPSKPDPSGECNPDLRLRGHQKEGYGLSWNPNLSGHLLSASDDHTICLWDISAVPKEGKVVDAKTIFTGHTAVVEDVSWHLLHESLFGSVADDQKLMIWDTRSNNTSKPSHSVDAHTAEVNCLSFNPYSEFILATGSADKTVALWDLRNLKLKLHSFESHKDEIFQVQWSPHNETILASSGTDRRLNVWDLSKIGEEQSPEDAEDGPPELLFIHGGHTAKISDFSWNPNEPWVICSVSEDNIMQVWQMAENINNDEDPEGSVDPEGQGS
UniProt Q569M3, residues 1-50: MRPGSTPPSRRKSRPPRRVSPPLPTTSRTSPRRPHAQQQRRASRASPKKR
UniProt Q6XXM1: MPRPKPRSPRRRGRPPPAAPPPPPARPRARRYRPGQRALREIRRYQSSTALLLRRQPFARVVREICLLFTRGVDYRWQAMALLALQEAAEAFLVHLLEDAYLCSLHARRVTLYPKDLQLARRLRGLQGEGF
UniProt O93377: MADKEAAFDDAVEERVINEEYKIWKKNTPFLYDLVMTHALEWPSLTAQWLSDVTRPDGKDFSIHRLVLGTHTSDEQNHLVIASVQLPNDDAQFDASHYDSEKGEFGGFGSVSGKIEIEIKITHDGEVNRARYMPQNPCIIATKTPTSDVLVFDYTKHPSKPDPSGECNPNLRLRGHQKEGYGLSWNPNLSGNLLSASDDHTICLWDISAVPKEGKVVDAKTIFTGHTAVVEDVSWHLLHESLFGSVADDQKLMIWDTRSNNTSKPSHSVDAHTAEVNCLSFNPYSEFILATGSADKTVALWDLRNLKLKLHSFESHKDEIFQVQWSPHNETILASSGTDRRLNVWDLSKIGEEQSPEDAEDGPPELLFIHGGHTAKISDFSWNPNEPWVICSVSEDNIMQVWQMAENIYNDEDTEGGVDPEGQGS
UniProt Q8AVH1: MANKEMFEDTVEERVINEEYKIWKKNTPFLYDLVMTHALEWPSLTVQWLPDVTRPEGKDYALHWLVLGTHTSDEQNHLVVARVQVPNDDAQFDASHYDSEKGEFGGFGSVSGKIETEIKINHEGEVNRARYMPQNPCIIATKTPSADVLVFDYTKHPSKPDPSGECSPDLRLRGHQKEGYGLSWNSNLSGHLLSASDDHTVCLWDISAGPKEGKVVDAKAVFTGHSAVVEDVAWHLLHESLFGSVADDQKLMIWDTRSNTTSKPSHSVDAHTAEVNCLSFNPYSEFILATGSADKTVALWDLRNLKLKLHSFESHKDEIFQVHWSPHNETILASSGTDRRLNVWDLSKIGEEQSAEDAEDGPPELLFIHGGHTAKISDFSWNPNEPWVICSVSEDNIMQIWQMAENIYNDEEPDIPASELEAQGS

Legend:
[1] = biological target: FLAG fused Y32H mutant RbAp48 (chicken) (UniProt Q9W7I5); experiment: co-IP; IP with anti-FLAG antibody in RbAp48 OFF DT40 cells expressing FLAG fused wild-type or Y32H RbAp48; western blot with anti-CENP-A
[2] = biological target: FLAG fused wild-type RbAp48 (chicken) (UniProt Q9W7I5); experiment: as above
HA-RbAp48 (chicken) = HA-RbAp48 (chicken) (UniProt Q9W7I5); experiment: co-IP; IP with anti-HA or anti-HJURP antibodies in DT40 cells expressing HA-RbAp48; western blot with anti-HJURP, anti-HA, anti-CENP-A, anti-H3 and anti-H4
[3] = biological target: GST fusion to Xenopus laevis CENP-A amino terminus (amino acids 1–50) (Xenopus laevis) (UniProt Q569M3); experiment: pull-down; GST-histone tails coupled to NHS Sepharose (20 μl resin) with 0.7 μg Hat1, RbAp46 or RbAp48, or RbAp46 with Hat1, in 150 μl 20 mM K-HEPES pH 7.4, 50 mM KCl, 0.1% Tween-20, 5 mM DTT; 2 h at 4 °C; washes with 300 mM KCl; coomassie-stained gel; both purified
[4] = biological target: GST fusion to Xenopus laevis CENP-A amino terminus (amino acids 1–50) (Xenopus laevis) (UniProt Q569M3); experiment: pull-down; affinity chromatography: GST-tail fusions coupled to Affigel-10; clarified mitotic Xenopus egg extract, pre-passed over immobilised GST, in 50 mM HEPES pH 7.7, 100 mM KCl; elution with 100 mM steps of KCl; only the target purified

## CENP-A (chicken, endogenous in DT40 cells) (from UniProt Q6XXM1 1-131)
[1]
  binding: binds
[2]
  binding: binds
HA-RbAp48 (chicken)
  binding: binds

## Flag RbAp48 (Xenopus, recombinant) (from UniProt O93377 1-425)
[3]
  binding: binds

## Xenopus RbAp46 (endogenous in egg extract) (from UniProt Q8AVH1 1-425)
[4]
  binding: binds

## Xenopus RbAp48 (endogenous in egg extract) (from UniProt O93377 1-425)
[4]
  binding: binds
